Assay results reported in article PMC9903539.
These are yes or no findings as the source states them, for the method shown. In cells and extracts the contact can be indirect. Some results given as binding are weak or reduced against the parent protein; the word gives no strength.

Legend:
[1] = target: T1, CAV1 (mouse (endogenous in AML12)) (UniProt P49817); test: condition: only cells treated with rMSA (600 μM) for 2 h; co-IP; as a1, but the AML12 hepatocytes were treated with rMSA (600 μM) for 2 h, in the absence or presence of 2 μM Dasatinib; CAV1 antibody on Protein A+G magnetic beads overnight at 4 °C; blot for EGFR
T1 sequence: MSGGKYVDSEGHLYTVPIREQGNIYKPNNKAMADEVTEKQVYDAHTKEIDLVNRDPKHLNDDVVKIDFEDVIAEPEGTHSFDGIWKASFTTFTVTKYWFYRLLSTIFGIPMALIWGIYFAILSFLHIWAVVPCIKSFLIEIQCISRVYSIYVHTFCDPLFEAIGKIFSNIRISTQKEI

[2] = target: T1, CAV1 (mouse (endogenous in AML12)); test: co-IP; pre-cleared lysate of serum-starved AML12 hepatocytes, with or without 2 μM Dasatinib (SRC inhibitor) for 2 h, no rMSA; CAV1 antibody on Protein A+G magnetic beads overnight at 4 °C; blot for EGFR
[3] = target: T1, CAV1 (mouse (endogenous in AML12)); test: co-IP; as a1, but the AML12 hepatocytes were treated with rMSA (600 μM) for 2 h, in the absence or presence of 2 μM Dasatinib; CAV1 antibody on Protein A+G magnetic beads overnight at 4 °C; blot for EGFR

epidermal growth factor receptor (EGFR) (from UniProt Q01279 25-1210)
binding [1]: no binding
binding [2]: binds
binding [3]: binds
